The record followed here is publication PMC4269414, “Stubborn Contaminants: Influence of Detergents on the Purity of the Multidrug ABC Transporter BmrA” (PLoS ONE, 2014).

These are yes or no findings as the source states them, for the method shown. Sequences can lack the tags named with a protein.

This assay addresses T1, Acriflavine resistance protein B (AcrB) (E. coli (endogenous in the expression strain)) (UniProt P31224).
T1 sequence: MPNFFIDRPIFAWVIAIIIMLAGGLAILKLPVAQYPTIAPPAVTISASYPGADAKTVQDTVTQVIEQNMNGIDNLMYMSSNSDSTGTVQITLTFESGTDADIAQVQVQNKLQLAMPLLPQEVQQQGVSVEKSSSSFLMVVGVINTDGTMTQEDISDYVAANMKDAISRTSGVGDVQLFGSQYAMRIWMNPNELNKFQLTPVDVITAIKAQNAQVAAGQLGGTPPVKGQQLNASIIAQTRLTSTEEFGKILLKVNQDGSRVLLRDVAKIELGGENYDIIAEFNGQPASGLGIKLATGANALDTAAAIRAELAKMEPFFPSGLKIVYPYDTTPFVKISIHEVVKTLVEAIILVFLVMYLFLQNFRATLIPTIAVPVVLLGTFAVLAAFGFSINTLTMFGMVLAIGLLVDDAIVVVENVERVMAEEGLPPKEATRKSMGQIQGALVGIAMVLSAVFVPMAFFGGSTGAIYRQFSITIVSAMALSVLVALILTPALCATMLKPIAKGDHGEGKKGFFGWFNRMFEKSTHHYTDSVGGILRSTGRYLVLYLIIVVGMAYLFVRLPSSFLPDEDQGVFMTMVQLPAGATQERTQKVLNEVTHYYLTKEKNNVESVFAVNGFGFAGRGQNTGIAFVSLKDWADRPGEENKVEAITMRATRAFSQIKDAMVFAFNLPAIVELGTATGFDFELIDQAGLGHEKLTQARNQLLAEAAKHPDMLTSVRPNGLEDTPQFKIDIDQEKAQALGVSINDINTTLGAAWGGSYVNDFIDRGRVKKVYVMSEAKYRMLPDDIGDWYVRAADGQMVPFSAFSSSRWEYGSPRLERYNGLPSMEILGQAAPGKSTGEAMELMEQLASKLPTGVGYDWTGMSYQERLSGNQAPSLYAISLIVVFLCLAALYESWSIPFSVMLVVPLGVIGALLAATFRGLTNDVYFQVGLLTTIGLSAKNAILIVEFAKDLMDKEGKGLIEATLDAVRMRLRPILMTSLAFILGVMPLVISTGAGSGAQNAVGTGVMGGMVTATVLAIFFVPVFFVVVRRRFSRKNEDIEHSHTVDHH
In words: pull-down; second Ni2+ High Trap chelating column in DDM after partial trypsin cleavage of the N-terminal His6 tag; flow-through against the peak eluted with 250 mM imidazole, fractions on SDS-PAGE; both purified.

B1: E504Q BmrA mutant, untagged, cleaved by trypsin (starts at Leu12) (domain or fragment, Bacillus subtilis, UniProt O06967 12-589, looked up)
chain: LKPFFALVRRTNPSYGKLAFALALSVVTTLVSLLIPLLTKQLVDGFSMSNLSGTQIGLIALVFFVQAGLSAYATYALNYNGQKIISGLRELLWKKLIKLPVSYFDTNASGETVSRVTNDTMVVKELITTHISGFITGIISVIGSLTILFIMNWKLTLLVLVVVPLAALILVPIGRKMFSISRETQDETARFTGLLNQILPEIRLVKASNAEDVEYGRGKMGISSLFKLGVREAKVQSLVGPLISLVLMAALVAVIGYGGMQVSSGELTAGALVAFILYLFQIIMPMGQITTFFTQLQKSIGATERMIEILAEEEEDTVTGKQIENAHLPIQLDRVSFGYKPDQLILKEVSAVIEAGKVTAIVGPSGGGKTTLFKLLERFYSPTAGTIRLGDEPVDTYSLESWREHIGYVSQESPLMSGTIRENICYGLERDVTDAEIEKAAEMAYALNFIKELPNQFDTEVGERGIMLSGGQRQRIAIARALLRNPSILMLDQATSSLDSQSEKSVQQALEVLMEGRTTIVIAHRLSTVVDADQLLFVEKGEITGRGTHHELMASHGLYRDFAEQQLKMNADLENKAG
notes: BmrA, Bacillus subtilis, E504Q mutant, cut by trypsin between Lys11 and Leu12; The His6 tag is lost together with residues 1-11; also called untagged BmrA; untagged, cleaved, monomer
Take B1: the binding entry is recorded as “no binding”.
